{"sequences": {"note": "Protein sequences, listed by entry. Tags and fused reporters are not part of them. Lines headed by an entry give the natural chain unless they say otherwise; changes in a name come on top.", "UniProt Q9UK33": "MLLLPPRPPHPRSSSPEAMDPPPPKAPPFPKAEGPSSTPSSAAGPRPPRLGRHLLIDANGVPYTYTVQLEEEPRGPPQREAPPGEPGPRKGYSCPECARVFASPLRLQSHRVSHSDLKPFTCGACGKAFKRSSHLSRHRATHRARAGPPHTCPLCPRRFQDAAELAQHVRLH", "UniProt Q9P0L0": "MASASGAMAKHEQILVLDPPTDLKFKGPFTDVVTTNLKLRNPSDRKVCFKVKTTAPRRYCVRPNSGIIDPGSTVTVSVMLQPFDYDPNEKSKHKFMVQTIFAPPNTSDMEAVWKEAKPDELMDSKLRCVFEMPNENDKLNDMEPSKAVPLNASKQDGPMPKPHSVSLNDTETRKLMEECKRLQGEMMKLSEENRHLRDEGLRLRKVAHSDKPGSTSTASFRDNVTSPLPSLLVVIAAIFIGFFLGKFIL", "UniProt Q9UGM6": "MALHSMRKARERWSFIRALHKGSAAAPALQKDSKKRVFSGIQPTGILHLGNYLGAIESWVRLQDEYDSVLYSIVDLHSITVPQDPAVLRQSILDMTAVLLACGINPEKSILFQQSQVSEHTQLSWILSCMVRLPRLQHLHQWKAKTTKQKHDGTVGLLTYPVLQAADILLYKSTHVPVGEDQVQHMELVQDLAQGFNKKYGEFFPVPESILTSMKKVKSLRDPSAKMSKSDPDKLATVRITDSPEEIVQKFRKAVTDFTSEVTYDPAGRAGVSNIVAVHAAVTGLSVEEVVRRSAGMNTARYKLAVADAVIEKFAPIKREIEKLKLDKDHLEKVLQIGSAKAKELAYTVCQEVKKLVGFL", "UniProt Q9UHK0": "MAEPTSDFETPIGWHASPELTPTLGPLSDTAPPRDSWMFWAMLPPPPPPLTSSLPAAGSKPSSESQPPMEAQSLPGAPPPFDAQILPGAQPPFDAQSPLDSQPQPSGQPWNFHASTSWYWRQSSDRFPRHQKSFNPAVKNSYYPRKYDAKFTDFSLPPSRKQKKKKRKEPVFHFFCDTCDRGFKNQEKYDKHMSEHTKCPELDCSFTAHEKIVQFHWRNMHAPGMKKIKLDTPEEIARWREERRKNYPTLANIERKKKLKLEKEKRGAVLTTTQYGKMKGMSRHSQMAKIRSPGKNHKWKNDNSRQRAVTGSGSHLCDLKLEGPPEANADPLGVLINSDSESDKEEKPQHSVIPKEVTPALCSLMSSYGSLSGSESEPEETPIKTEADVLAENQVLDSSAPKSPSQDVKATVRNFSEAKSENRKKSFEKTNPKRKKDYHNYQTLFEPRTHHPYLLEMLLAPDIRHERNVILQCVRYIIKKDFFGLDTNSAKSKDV", "UniProt Q9UHN1": "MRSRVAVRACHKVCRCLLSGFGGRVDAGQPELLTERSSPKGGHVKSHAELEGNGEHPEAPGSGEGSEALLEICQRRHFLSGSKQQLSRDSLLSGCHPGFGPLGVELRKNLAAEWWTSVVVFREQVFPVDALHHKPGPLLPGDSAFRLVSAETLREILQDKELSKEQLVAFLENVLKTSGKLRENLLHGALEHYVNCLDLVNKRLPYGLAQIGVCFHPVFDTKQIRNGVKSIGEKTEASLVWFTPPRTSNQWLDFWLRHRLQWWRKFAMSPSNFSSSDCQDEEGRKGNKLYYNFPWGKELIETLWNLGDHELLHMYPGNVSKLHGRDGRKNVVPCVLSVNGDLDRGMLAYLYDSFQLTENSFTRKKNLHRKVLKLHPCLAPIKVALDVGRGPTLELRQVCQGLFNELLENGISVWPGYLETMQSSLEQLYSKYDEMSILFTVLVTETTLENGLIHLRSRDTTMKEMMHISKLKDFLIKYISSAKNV", "UniProt Q9UH36": "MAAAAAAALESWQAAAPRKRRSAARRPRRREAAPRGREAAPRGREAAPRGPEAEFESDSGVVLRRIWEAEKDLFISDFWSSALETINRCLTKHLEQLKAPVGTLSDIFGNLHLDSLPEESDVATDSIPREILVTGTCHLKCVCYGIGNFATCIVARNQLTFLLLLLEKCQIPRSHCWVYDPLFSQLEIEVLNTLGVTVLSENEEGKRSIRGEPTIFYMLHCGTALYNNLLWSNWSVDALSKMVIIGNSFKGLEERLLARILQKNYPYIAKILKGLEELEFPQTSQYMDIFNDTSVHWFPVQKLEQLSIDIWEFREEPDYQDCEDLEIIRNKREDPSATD", "UniProt Q9NZJ0": "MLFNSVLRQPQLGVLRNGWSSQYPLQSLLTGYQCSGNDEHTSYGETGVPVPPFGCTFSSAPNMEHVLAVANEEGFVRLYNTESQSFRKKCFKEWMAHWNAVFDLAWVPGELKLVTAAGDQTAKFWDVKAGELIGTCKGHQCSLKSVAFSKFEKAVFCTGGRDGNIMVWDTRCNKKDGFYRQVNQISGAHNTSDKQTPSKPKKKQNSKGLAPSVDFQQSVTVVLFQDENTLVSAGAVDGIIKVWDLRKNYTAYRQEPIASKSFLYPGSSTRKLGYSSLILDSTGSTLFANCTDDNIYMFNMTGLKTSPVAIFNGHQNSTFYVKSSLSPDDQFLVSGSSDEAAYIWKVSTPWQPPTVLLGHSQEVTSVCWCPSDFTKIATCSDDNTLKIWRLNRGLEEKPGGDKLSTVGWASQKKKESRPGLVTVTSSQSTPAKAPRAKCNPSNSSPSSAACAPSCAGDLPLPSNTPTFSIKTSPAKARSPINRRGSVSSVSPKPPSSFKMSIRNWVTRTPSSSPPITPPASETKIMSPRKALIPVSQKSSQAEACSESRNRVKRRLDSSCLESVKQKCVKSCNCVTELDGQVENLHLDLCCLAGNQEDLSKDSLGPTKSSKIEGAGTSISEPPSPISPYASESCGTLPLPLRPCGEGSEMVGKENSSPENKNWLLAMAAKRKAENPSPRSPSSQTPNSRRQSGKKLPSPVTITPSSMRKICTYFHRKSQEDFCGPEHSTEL", "UniProt Q9UBI1, whole entry": "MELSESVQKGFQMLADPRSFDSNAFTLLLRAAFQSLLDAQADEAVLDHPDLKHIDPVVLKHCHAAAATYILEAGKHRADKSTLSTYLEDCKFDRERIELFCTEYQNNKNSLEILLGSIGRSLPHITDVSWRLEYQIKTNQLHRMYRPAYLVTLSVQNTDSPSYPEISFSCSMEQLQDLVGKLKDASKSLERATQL", "UniProt Q9UBZ9": "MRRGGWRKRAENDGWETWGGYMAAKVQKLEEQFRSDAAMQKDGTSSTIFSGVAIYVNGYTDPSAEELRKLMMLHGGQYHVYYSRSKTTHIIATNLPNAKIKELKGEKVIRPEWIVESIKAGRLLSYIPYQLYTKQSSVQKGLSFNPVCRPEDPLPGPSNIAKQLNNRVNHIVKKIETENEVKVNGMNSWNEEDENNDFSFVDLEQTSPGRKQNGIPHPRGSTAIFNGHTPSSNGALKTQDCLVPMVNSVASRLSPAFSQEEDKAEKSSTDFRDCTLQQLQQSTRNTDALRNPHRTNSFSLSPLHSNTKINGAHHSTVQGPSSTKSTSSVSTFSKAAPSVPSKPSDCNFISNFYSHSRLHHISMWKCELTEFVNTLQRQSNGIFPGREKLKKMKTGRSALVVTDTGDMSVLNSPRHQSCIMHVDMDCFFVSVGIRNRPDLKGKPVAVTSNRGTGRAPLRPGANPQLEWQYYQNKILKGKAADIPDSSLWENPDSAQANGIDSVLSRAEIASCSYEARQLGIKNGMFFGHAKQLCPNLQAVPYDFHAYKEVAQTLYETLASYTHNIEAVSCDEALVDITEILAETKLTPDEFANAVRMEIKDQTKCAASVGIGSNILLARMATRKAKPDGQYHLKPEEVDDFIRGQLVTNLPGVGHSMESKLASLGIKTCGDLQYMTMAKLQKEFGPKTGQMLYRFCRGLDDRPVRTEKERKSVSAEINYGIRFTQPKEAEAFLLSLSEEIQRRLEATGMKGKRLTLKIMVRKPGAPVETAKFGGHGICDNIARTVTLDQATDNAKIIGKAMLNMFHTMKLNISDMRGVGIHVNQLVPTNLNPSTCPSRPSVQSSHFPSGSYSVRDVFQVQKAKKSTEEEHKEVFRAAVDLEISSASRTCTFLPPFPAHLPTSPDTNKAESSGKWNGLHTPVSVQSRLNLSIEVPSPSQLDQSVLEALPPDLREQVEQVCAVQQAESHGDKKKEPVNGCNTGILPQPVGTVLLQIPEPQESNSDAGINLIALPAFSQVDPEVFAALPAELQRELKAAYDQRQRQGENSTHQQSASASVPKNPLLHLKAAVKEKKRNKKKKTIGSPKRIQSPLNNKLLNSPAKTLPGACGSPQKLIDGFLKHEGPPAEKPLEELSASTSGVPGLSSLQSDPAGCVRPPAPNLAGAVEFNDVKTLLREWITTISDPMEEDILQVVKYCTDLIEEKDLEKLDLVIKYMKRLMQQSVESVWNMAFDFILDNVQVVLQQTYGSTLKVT"}, "source": "the supplement of paper PMC12819154", "about": "“High-throughput peptide-centric local stability assay extends protein–ligand identification to membrane proteins, tissues and bacteria” (Nature Structural & Molecular Biology, 2025)", "note": "The other results are listed elsewhere or left out. Small differences around the control level are noise.", "data": [{"compound": "CN[C@@H]1C[C@H]2O[C@@](C)([C@@H]1OC)n1c3ccccc3c3c4c(c5c6ccccc6n2c5c31)C(=O)NC4 [staurosporine]", "test": "log2 fold change of tryptic peptide abundance, ligand vs vehicle (limited proteolysis) (log2 ratio); higher = more trypsin-susceptible (destabilized)", "details": "ligand concentration: 20 uM; sample: K562 cleared lysate; digestion: 4 min, 22 C (HT-PELSA RT4min, Orbitrap Astral)", "values": [{"target": "ZNF580 (peptide sequence: AEGPSSTPSSAAGPRPPR, peptide start residue: 32) (UniProt Q9UK33)", "log2 fold change": 0.29}, {"target": "VAPA (peptide sequence: KLMEECKR, peptide start residue: 174) (UniProt Q9P0L0)", "log2 fold change": 0.244}, {"target": "WARS2 (peptide sequence: YKLAVADAVIEK, peptide start residue: 302) (UniProt Q9UGM6)", "log2 fold change": 0.518}, {"target": "NUFIP1 (peptide sequence: LDTPEEIAR, peptide start residue: 230) (UniProt Q9UHK0)", "log2 fold change": -0.0899}, {"target": "POLG2 (peptide sequence: VDAGQPELLTER, peptide start residue: 25) (UniProt Q9UHN1)", "log2 fold change": -0.00441}, {"target": "SRRD (peptide sequence: AAAAAAALESWQAAAPR, peptide start residue: 2) (UniProt Q9UH36)", "log2 fold change": -0.558}, {"target": "DTL (peptide sequence: GSVSSVSPKPPSSFK, peptide start residue: 484) (UniProt Q9NZJ0)", "log2 fold change": 0.285}, {"target": "COMMD3 (peptide sequence: NSLEILLGSIGR, peptide start residue: 109) (UniProt Q9UBI1)", "log2 fold change": -0.253}, {"target": "REV1 (peptide sequence: AEIASCSYEAR, peptide start residue: 506) (UniProt Q9UBZ9)", "log2 fold change": -0.329}]}]}
